Changes are numbered by the printed parent chain. Results are given in words; binding and its absence hold for the method and conditions named.
B1: clone 2 (17.022) scFv, yeast surface display clone (scFv)
scFv: EIQLQQSGPELRRPGSSVKLSCKASGYNITDYLIHWVRHRPEHGLEWIGWIDPEDGETRYAQKFQSKATLTADTSSNAAYMQLSSLTPEDTATYFCARSLDSTWIYPFAYWGQGTLVTVSSGGGGSGGGGSGGGGSDIVMTQSPFSLAVSEGEMVTINCKSSQSLLRSGNQKNYLAWYQQKPGQSPKLLIYYASTGQSGVPDRFIGSGSGTDFTLTISDVQAEDLADYYCLQHYITPPTFGAGTKLELK
B2: clone 1 (17.021) scFv, yeast surface display clone (scFv)
scFv: B1 scFv with Y32N, W104Y, I235Q, T236S
B3: clone 4 (17.023) scFv, yeast surface display clone (scFv)
scFv: B1 scFv with S99Q, W104Y
B4: clone 5 (17.030) scFv, yeast surface display clone (scFv)
scFv: B1 scFv with W104Y, I105D, T236S
B5: clone 6 (17.035) scFv, yeast surface display clone (scFv)
scFv: B1 scFv with W104Y, I105N, Y234W, T236S

Biological target: OX40
Assay: yeast surface display, flow cytometry, mixture of 500 nM soluble TNFR2, 500 nM OX40 and 500 nM PD1

binding, no binding (tested: 500 nM):
B1
B2
B3
B4
B5

Biological target: soluble TNFR2
Assay: as above

binding, no binding (tested: 500 nM):
B1
B2
B3
B4
B5

Biological target: PD1
Assay: as above

binding, no binding (tested: 500 nM):
B1
B2
B3
B4
B5

Biological target: OX40
Assay: yeast surface display flow cytometry, clone labelled with a mixture of 500 nM soluble TNFR2, 500 nM OX40 and 500 nM PD1; one bar for the whole mixture

binding, no binding (tested: 500 nM):
B1
B2
B3
B4
B5

Biological target: soluble TNFR2
Assay: as above

binding, no binding (tested: 500 nM):
B1
B2
B3
B4
B5

Biological target: PD1
Assay: as above

binding, no binding (tested: 500 nM):
B1
B2
B3
B4
B5

Reference: patent publication US20240092888A1 (AULOS BIOSCIENCE, published 2024)
